These are yes or no findings as the source states them, for the method shown. Some entries that bind do so weakly or less than the wild type. One block for each binder: values may come before it.
How the values were obtained:
Recombinant MICB protein [1] = molecular target: T1, Recombinant MICB protein (UniProt Q29980); assay: ELISA, coated MICB (100 ng/well), goat anti-mouse IgG-HRP, OD 450 nm
T1 sequence (looked up): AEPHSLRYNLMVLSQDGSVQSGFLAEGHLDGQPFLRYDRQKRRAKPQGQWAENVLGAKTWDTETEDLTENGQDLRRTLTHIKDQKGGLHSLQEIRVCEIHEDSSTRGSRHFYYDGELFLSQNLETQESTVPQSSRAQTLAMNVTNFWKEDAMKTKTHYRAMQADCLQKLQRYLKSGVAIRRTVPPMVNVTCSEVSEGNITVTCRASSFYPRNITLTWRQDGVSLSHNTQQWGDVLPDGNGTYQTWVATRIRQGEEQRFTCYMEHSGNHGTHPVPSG

Recombinant MICB protein [2] = molecular target: T1, Recombinant MICB protein; assay: ELISA, antigen coated on the plate

binding (Recombinant MICB protein [1]): binds | binding (Recombinant MICB protein [2]): binds
B1: 16F10.C12 (antibody, V domains shown)
VH: EVQLQESGPGLVAPSQSLSITCTVSGFSLTAFGVNWVRQPPGKGLEWLGMIWGDGNTDYNSTLRSRLSISKDNSKSQVFLKLNSLQTDDTARYFCARETYYGNYAGLGYWGQGTLVTVSA
VL: QIVLTQSPAIMSASIGERVTMTCTASSSVSSNYLHWYQQKPRSSPKLWIYTTSNLASGVPTRFSGSGSGTSYSLTISSMEAEDAATYYCHQFHRSPFTFGSGTKLEIK

binding (Recombinant MICB protein [1]): binds | binding (Recombinant MICB protein [2]): binds
B2: 3F9.E4 (antibody, V domains shown)
VH: EVQLQESGEGLVKPGGSLKLSCAASGFTFSNYAMSWVRQTPEKRLEWVAYISPGGDYIYYADTVKGRFTISRDNARNTLYLQMSSLKSEDTAMYYCTTDRRHYGSYAMDYWGQGISVTVSS
VL: DIVMTQAAPSVPVTPGESVSISCRSSKSLLHSNGNTYLYWFLQRPGQSPQLLIYRMSNLASGVPDRFSGSGSGTAFTLRISRVEAEDVGVYYCMQHLEYPFTFGSGTKLEIK
